Data as given in PubChem BioAssay AID624297 (National Center for Advancing Translational Sciences (NCATS), 2012).
Screen size: about 340,000 compounds; about 6,200 (1.8%) were called active. Inconclusive results, whose numbers are uncertain, are shown with a selection of clear calls. The call rests on the fitted dose curve; in most records, active means well fitted activation curve with a large enough effect; inconclusive means small, poorly fitted or top-dose-only effect; inactive means no such curve, though single readings can be large or run the other way. Potencies of inconclusive entries are doubtful fits and often do not repeat.

assay: A quantitative high throughput screen for small molecules that induce DNA re-replication in SW480 colon adenocarcinoma cells.; further: nearly all actives have a fitted effect of over 55% in size; settings: Hoechst DNA content imaging, 48 h; series mostly up to 46.1 µM
Method in brief: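 Hoechst fluorescence of nuclei (405 nm excitation, 500-530 nm emission) measured by plate-scanning imager after 48 hr compound exposure at 37 C; re-replication scored as increased number of nuclei with elevated intensity.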
Potency means the concentration at half of the fitted maximal effect.

Compound | Potency
Cc1cc(C)c(S(C)(=O)=O)c(Oc2cccc(Cl)c2)n1 | inactive
COc1ccc(-c2noc(N3CCC(C(=O)Nc4cc(OC)c(OC)c(OC)c4)CC3)n2)cc1 | inconclusive: 29.1 µM [activator, single point]
Cc1ccc(-c2cc(C(=O)N/N=C/c3c(C)nn(-c4ccccc4)c3C)n[nH]2)s1 | active: 1.3 µM
COC(=O)C1(C)NC(c2cccc(C)c2)C2C(=O)N(c3ccc(F)cc3)C(=O)C21 (stereo not given) | inconclusive: 0.231 µM [activator, full curve, poor fit]
O=C(/C(=N\Nc1ccc([N+](=O)[O-])cc1)Sc1nnnn1-c1ccccc1)c1ccccc1 | inactive
Oc1ccc(/C=C/c2ccc3ccccc3n2)cc1 | active: 18.4 µM
O=S(=O)(Nc1ccc(Cl)nn1)c1ccccc1 | inconclusive: 29.1 µM [activator, single point]
CCOc1ccc(C(=O)NC(=S)N(Cc2ccccc2)Cc2ccccc2)cc1 | inconclusive: 11.6 µM [activator, partial curve]
CC(=O)Nc1ccc(NC(=O)c2nc(S(=O)(=O)Cc3cccc(C)c3)ncc2Cl)cc1 | inconclusive: 0.651 µM [activator, full curve, poor fit]
CC1CCCCC1NC(=O)CSc1nnc(CN2CCOCC2)n1C (stereo not given) | inconclusive: 11.6 µM [activator, single point]
O=C(NC(=S)Nc1cccnc1)c1cc2ccccc2o1 | inconclusive: 0.13 µM [activator, full curve, poor fit]
Cc1ccc(NC(=O)/C(=C\c2ccco2)NC(=O)c2ccco2)cc1 | inconclusive: 35.5 µM [activator, single point]
O=[N+]([O-])c1ccc(N2N=C(c3ccco3)CC2c2ccccc2)cc1 (stereo not given) | inconclusive: 14.6 µM [activator, single point]
COc1ccc(OC)c(NC(=O)c2cc(-c3cc(C)cc(C)c3O)n[nH]2)c1 | inactive
CSC1=NC(=O)/C(=C/c2ccc(SC)cc2)S1 | inactive
COc1ccccc1-c1cc(SC)c(C#N)c(=O)o1 | active: 18.4 µM
Cc1cc(C)n(C(=O)c2ccc(S(=O)(=O)NCC3CCCO3)cc2)n1 (stereo not given) | inconclusive: 0.326 µM [activator, full curve, poor fit]
Cc1nc2c(c(=O)c3ccccc3n2C)c(=O)n1-c1ccccc1 | inconclusive: 1.3 µM [activator, full curve]
CCN(C(=O)c1coc(=O)c(Br)c1)c1ccc2c(c1)OCO2 | inconclusive: 25.9 µM [activator, single point]
Cc1ccccc1CSc1nc2n(n1)C(c1cccs1)C1=C(CCCC1=O)N2 (stereo not given) | inconclusive: 18.4 µM [activator, single point]
CC(C)[C@H](NC(=O)OCc1ccccc1)C(=O)NCc1ccccc1 | inactive
Cc1ccc(Cl)cc1NC(=O)COC(=O)C1CC1 | inconclusive: 23.1 µM [activator, single point]
Cc1ccnc(NC(=O)/C=C/c2ccccc2Cl)c1 | inconclusive: 25.9 µM [activator, single point]
O=[N+]([O-])c1c(NCCO)cc(Sc2nc3ccccc3s2)c2nonc12 | inconclusive: 20.6 µM [activator, partial curve, poor fit]

Compound | Potency
CCN(C(=O)/C=C/c1cc(OC)c(OC)c(OC)c1)C1CCCCC1 | inconclusive: 23.1 µM [activator, single point]
COc1ccc(NS(=O)(=O)c2cc(NC(=O)Cn3cnc4c3c(=O)n(C)c(=O)n4C)ccc2C)cc1 | inconclusive: 29.1 µM [activator, single point]
O=C(CC1C(=O)NCCN1C(=O)c1ccc(Cl)cc1)Nc1ccc(F)cc1 (stereo not given) | inactive
O=C(CN(Cc1ccccc1)S(=O)(=O)c1ccccc1)N/N=C/c1ccc2c(c1)OCO2 | inactive
CNC[C@H](O)c1ccc(OC(=O)C(C)(C)C)c(OC(=O)C(C)(C)C)c1 | inactive
COc1ccc(COc2ccsc2C(=O)Nc2ccc(Cl)cc2)cc1 | inconclusive: 16.4 µM [activator, single point]
NC1=NC2(CCC(c3ccccc3)CC2)n2c(nc3ccccc32)N1 (stereo not given) | inconclusive: 18.4 µM [activator, single point]
COC(=O)CCC(=O)OC1(C)C(=O)C2=COC(c3ccc(OC)cc3)=CC2=C(Br)C1=O (stereo not given) | inactive
COc1ccc(CCN2CC(C(=O)NCc3ccco3)CC2=O)cc1OC (stereo not given) | inconclusive: 6.51 µM [activator, single point]
Cc1nnc(NC(=O)C2CCN(S(=O)(=O)c3cc([N+](=O)[O-])ccc3Cl)CC2)o1 | inconclusive: 18.4 µM [activator, single point]
O=[N+]([O-])c1ccccc1/C=N\N1CCN(Cc2ccccc2Cl)CC1 | inactive
O=C(CC(SCCO)c1ccc2c(c1)OCO2)c1ccco1 (stereo not given) | inactive
COC(=O)[C@]1(Cc2ccccc2)N[C@H](CN(C)C(=O)C2CCCCC2)[C@@H]2C(=O)N(C)C(=O)[C@@H]21 | inconclusive: 1.03 µM [activator, single point]
COc1ccc(-n2ccc(=O)c(C(=O)Nc3ccc(S(=O)(=O)Nc4nccs4)cc3)n2)cc1 | inconclusive: 13 µM [activator, partial curve, poor fit]
Cc1ccc(C)c(CN2CCC(CNC(=O)Nc3ccc(Br)cc3F)CC2)c1 | inconclusive: 20.6 µM [activator, single point]
CC(=O)Nc1ccc(/C=N/NC(=O)CNC(=O)c2ccccc2)cc1 | inactive
Cc1ccc(C)n1N1C(=O)/C(=C\c2ccc(Cl)cc2)SC1=S | inactive
CC1CCCCN1CCNC(=O)c1ccc2c(c1)N(Cc1cccc(Cl)c1)C(=O)c1ccccc1S2=O (stereo not given) | inconclusive: 29.1 µM [activator, single point]
O=C1OC(CO)C(O)C(O)C1O (stereo not given) | inactive
COc1cccc(/C=C2\Oc3cc(OCC(=O)N4Cc5ccccc5C[C@H]4C(=O)O)ccc3C2=O)c1 | inactive
Cc1ccc(-c2cn3nc(-c4ccccc4)c(-c4ccccc4)nc3n2)cc1 | active: 18.4 µM
Cc1cccc(-n2c(C)cc(/C=N/NC(=O)c3cccc([N+](=O)[O-])c3C)c2C)c1 | inconclusive: 29.1 µM [activator, single point]
CCN(CC)c1ccc(/C=N/NC(=O)CCC(=O)NCc2ccccc2)c(O)c1 | inconclusive: 3.26 µM [activator, full curve]
c1ccc(-c2noc(-c3ccc4c(c3)OCO4)n2)nc1 | inconclusive: 18.4 µM [activator, partial curve, poor fit]

An excerpt of these results, as comma-separated lines:
Compound,Potency
COc1ccc(NS(=O)(=O)c2cc(NC(=O)Cn3cnc4c3c(=O)n(C)c(=O)n4C)ccc2C)cc1,"inconclusive: 29.1 µM [activator, single point]"
O=C(CC1C(=O)NCCN1C(=O)c1ccc(Cl)cc1)Nc1ccc(F)cc1 (stereo not given),inactive
O=C(CN(Cc1ccccc1)S(=O)(=O)c1ccccc1)N/N=C/c1ccc2c(c1)OCO2,inactive
CNC[C@H](O)c1ccc(OC(=O)C(C)(C)C)c(OC(=O)C(C)(C)C)c1,inactive
COc1ccc(COc2ccsc2C(=O)Nc2ccc(Cl)cc2)cc1,"inconclusive: 16.4 µM [activator, single point]"
NC1=NC2(CCC(c3ccccc3)CC2)n2c(nc3ccccc32)N1 (stereo not given),"inconclusive: 18.4 µM [activator, single point]"
COC(=O)CCC(=O)OC1(C)C(=O)C2=COC(c3ccc(OC)cc3)=CC2=C(Br)C1=O (stereo not given),inactive
COc1ccc(CCN2CC(C(=O)NCc3ccco3)CC2=O)cc1OC (stereo not given),"inconclusive: 6.51 µM [activator, single point]"
Cc1nnc(NC(=O)C2CCN(S(=O)(=O)c3cc([N+](=O)[O-])ccc3Cl)CC2)o1,"inconclusive: 18.4 µM [activator, single point]"
O=[N+]([O-])c1ccccc1/C=N\N1CCN(Cc2ccccc2Cl)CC1,inactive
O=C(CC(SCCO)c1ccc2c(c1)OCO2)c1ccco1 (stereo not given),inactive
COC(=O)[C@]1(Cc2ccccc2)N[C@H](CN(C)C(=O)C2CCCCC2)[C@@H]2C(=O)N(C)C(=O)[C@@H]21,"inconclusive: 1.03 µM [activator, single point]"
COc1ccc(-n2ccc(=O)c(C(=O)Nc3ccc(S(=O)(=O)Nc4nccs4)cc3)n2)cc1,"inconclusive: 13 µM [activator, partial curve, poor fit]"
Cc1ccc(C)c(CN2CCC(CNC(=O)Nc3ccc(Br)cc3F)CC2)c1,"inconclusive: 20.6 µM [activator, single point]"

(next part)

Compound | Potency
CCOc1cc(/C=N/NC(=O)c2ccccc2-n2cccc2)ccc1O | inconclusive: 18.4 µM [activator, single point]
CCOC(=O)C1(CCOc2ccccc2)CCN(Cc2cccc(OC)c2)CC1 | inconclusive: 29.1 µM [activator, single point]
COc1cccc(/C=N/Nc2ncnc3c2ncn3Cc2ccccc2)c1O | inconclusive: 6.51 µM [activator, single point]
CCS(=O)(=O)c1ncc(Cl)c(C(=O)Nc2ccc(C)cc2)n1 | active: 3.66 µM
COc1ccc(/C=N/NC(=O)Nc2ccc3nsnc3c2)c(OC)c1 | inconclusive: 29.1 µM [activator, single point]
COc1cccc(/C=N/NC(=O)CNC(=O)c2ccco2)c1O | inconclusive: 4.61 µM [activator, full curve]
CC(C)(C)OC(=O)NCCCCCNC(=O)c1[nH]cnc1C(=O)Nc1ccc(Cl)cc1 | inactive
O=[N+]([O-])c1ccc(NN=Cc2cc(Br)ccc2O)nc1 | active: 0.731 µM
COc1cccc(NC(C)C(=O)Nc2cc([N+](=O)[O-])ccc2Cl)c1 (stereo not given) | inconclusive: 18.4 µM [activator, single point]
Cc1ccccc1C(=O)c1cccn1CC(=O)NC1CCCC(C)C1C (stereo not given) | inconclusive: 18.4 µM [activator, single point]
CON(c1nc(Cl)nc(N(C)C)n1)S(=O)(=O)c1ccc(C)cc1 | inconclusive: 20.6 µM [activator, single point]
COC(=O)c1sc2ccccc2c1NC(=O)c1ccc(S(=O)(=O)N2CCC(C)CC2)cc1 | inconclusive: 1.46 µM [activator, full curve, poor fit]
COc1ccc(S(=O)(=O)NCC(=O)NCCc2ccc(OC)c(OC)c2)cc1 | inactive
O=C(Nc1cccc(F)c1)N1CCC(c2ccccc2)CC1 | inactive
Cc1ccc2sc3ccc(NC(=O)c4ccccc4Cl)cc3c(=O)c2c1 | active: 13 µM
Cc1cccnc1NC(=O)C1CCCN1S(=O)(=O)c1ccc(Cl)cc1 (stereo not given) | inactive
Cc1cc(C(=O)Nc2ccc(Br)cc2F)n(-c2ccccc2)n1 | inactive
CC(C)(C)n1ncc2c(=O)n(CC(=O)NCc3ccccc3)cnc21 | active: 20.6 µM
Cc1cccn2c(=O)c3cc(C(=O)NCCN4CCOCC4)n(C)c3nc12 | inconclusive: 10.3 µM [activator, partial curve]
CC1CN(CC(=O)Nc2cccc(C(=O)Nc3cccc(C(F)(F)F)c3)c2)CC(C)O1 (stereo not given) | inconclusive: 0.13 µM [activator, full curve, poor fit]
Cc1ccc2[nH]c3c(c2c1)SC(C)(C)CC3=O | inconclusive: 23.1 µM [activator, single point]
O=C(CNCc1ccccc1)Nc1ccc(Cl)cc1 | inconclusive: 18.4 µM [activator, partial curve, poor fit]
